Measurements from publication PMC11856857, “Protease-Resistant, Broad-Spectrum Antimicrobial Peptides with High Antibacterial and Antifungal Activity” (Life, 2025).
Where a SMILES comes first, the peptide text is derived from it. Where no end group is shown, it is not given here.

Columns and labels:
HaCaT cell line = assay type: cell-based, human; settings: IC50/MIC value of the related organism
Protocol: (§1) 3T3 and HaCaT cells were grown in DMEM consisting of 1% pen/strep and 10% FBS. A total of 5 × 10^4 cells were loaded into each well of a 96-well plate and incubated at 37 °C using a 5% CO2 incubator. All samples were measured in triplicate between 0.5–32 µg/mL concentrations and incubated at 37 °C for 24 h in a 5% CO2 incubator. Only cells and Mag-2 were used as negative and positive controls, respectively. After 24 h, cell cytotoxicity was evaluated using a cell proliferation kit (MTT, Roche, Basel, Switzerland) following the kit protocol and analyzed at 550 nm and 690 nm using a microplate reader (Gen5 Synergy HT BioTek). The concentration of peptides that killed 50% of the cells was determined as the IC50 in the cytotoxicity experiments.

3t3 cell line = assay type: cell-based, mouse; settings: IC50/MIC value of the related organism
Protocol: as §1

Row | Compound | HaCaT Selectivity Index C. albicans (HaCaT cell line) | HaCaT Selectivity Index E. coli (HaCaT cell line) | HaCaT Selectivity Index P. aeruginosa (HaCaT cell line) | HaCaT Selectivity Index S. aureus (HaCaT cell line) | 3t3 Selectivity Index C. albicans (3t3 cell line) | 3t3 Selectivity Index E. coli (3t3 cell line) | 3t3 Selectivity Index P. aeruginosa (3t3 cell line) | 3t3 Selectivity Index S. aureus (3t3 cell line)
1 | CC(C)C[C@@H](NC(=O)[C@H](N)CCCNC(=N)N)C(=O)N[C@H](CC(C)C)C(=O)N[C@H](CCCNC(=N)N)C(=O)N[C@H](CC(C)C)C(=O)N[C@H](CC(C)C)C(=O)N[C@H](CC(C)C)C(=O)N[C@H](CCCNC(=N)N)C(=O)N[C@H](CC(C)C)C(=O)N[C@H](CC(C)C)C(=O)N[C@H](CCCNC(=N)N)C(N)=O [D-TN6] (HELM PEPTIDE1{[dR].[dL].[dL].[dR].[dL].[dL].[dL].[dR].[dL].[dL].[dR].[am]}$$$$V2.0) | 39.28 | 19.64 | 9.82 | 19.64 | 35.16 | 17.58 | 8.79 | 17.58
2 | RLLRLLLRLLR-NH2 [TN6] | 30.64 | 7.66 | 1.91 | 7.66 | 59.60 | 14.90 | 3.72 | 14.90
